Reference: PubChem BioAssay AID624150 (Cancer Research UK Cambridge, 2012)
Screen: 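Effect of silencing chromatin genes on per-cell differentiation marker amount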 (primary screen). System: primary human epidermal keratinocytes. Reagents: siRNA pool against human genes, 1-2 µM siRNA in 20 µl nucleofection. Duration: 72 h after transfection plus 48 h differentiation (about 5 days). Conditions: five arms for 48 h: vehicle, AG1478 10 µM, BMP2/7 200 ng/ml, both together, or 10% serum. Measurement: 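Per-cell amount of a differentiation marker read by infrared scanning of the plate, given as a z-score within each plate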. Reading the numbers: z-score, vehicle and z-score, AG1478 10 µM and z-score, BMP2/7 200 ng/ml and z-score, AG1478 with BMP2/7 and z-score, 10% serum: higher = more differentiation marker per cell.
Here is one part, drawn at random, of 331 deposited reagents. 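Each arm had three replicate z-scores, but only the first replicate is printed; higher values mean more differentiation marker per cell.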

no.	gene	z-score, vehicle	z-score, AG1478 10 µM	z-score, BMP2/7 200 ng/ml	z-score, AG1478 with BMP2/7	z-score, 10% serum
1	SUV39H1	-0.288	-0.426	0.219	0.778	-0.797
2	PRDM5	-0.378	0.664	1.03	0.591	0.879
3	BAZ1B	0.0755	0.941	0.164	0.123	0.109
4	SMYD3	0.00175	0.544	0.792	0.763	-0.0858
5	RSF1	-0.546	0.237	0.758	0.433	0.516
6	MTA2	-2.5	-0.367	0.273	0.0904	-0.508
7	SUPT7L	-1.01	-1.07	-1.16	-0.11	-0.845
8	TCF20	-0.938	-0.651	-0.722	1.41	-0.68
9	SETD4	0.631	0.462	0.809	0.116	0.858
10	DHX9	-0.367	-1.07	-0.0433	-1.36	-0.608
11	XRCC1	-0.707	0.634	-0.318	0.114	-0.14
12	BRD4	-2.36	-2.51	-2.84	-3.74	-3.28
13	GLYR1	-0.736	-1.12	-0.754	-0.271	-0.66
14	BRD2	1.21	-0.0293	-0.476	-1.15	0.426
15	CBX5	0.723	1.21	0.438	1.01	1.01
16	PHF7	-0.595	-0.00642	-0.619	-0.164	-0.331
17	TDRD5	0.367	-0.323	0.0585	-0.895	0.395
18	MBD6	-1.3	-0.29	-1.14	-0.681	-0.253
19	UHRF2	-0.667	0.261	0.483	0.568	0.582
20	PHF13	0.342	0.438	0.767	1.09	1.43
21	MDC1	0.0903	0.164	0.433	0.535	-0.517
22	KDM7A	1.89	0.468	-0.00345	0.411	0.66
23	BRWD3	0.369	-0.174	-0.135	-0.689	0.46
24	PRDM13	-0.0283	0.239	-0.0978	0.28	0.745
25	PRMT2	1.46	1.44	2.51	1.61	1.35
26	HDAC8	1.1	-0.987	-1.84	-0.453	-0.584
27	DIDO1	-0.989	-0.775	-0.16	-0.412	-1.13
28	PHF14	1.02	1.78	1.91	2.24	2.85
29	GATAD2A	2.6	0.0333	-0.616	2.3	0.837
30	KDM6B	-2.2	1.17	1.91	2.01	1.55
31	JADE1	1.67	2.9	1.98	1.67	1.09
32	GTF3C4	1.07	0.338	1.68	1	1.13
33	ARID4A	0.896	1.2	1.73	1.38	0.475
34	SP100	-0.591	0.476	-0.12	0.552	0.625
35	HDAC10	0.283	2.4	1.02	1.29	0.299
36	SETD6	0.277	0.169	0.311	1.24	0.457
37	TDRD6	0.424	-0.0483	-0.12	0.00913	0.0907
38	PHF20	-0.455	-0.798	-0.282	-1.05	-0.3
39	KAT6B	0.479	2.08	1.13	1.88	1.27
40	BRCA1	-0.144	0.236	-0.228	0.0403	0.227
41	NCOA3	1.56	0.267	0.612	0.624	1.8
42	DNMT3B	-0.382	-1.16	-0.384	0.0442	0.281
43	NSD2	-0.113	-0.484	0.874	-0.209	-0.375
44	KDM4D	2.09	0.914	0.455	0.458	1.17
45	UHRF1	2.11	1.25	2.2	1.42	1.53
46	PRMT7	-0.721	-1.11	-0.385	-0.922	-0.762
47	CHD8	-0.96	-2.07	-1.05	-1.37	-0.973
48	ING2	-0.141	-0.138	-0.189	-0.934	0.0735
49	PHF8	-0.863	-0.767	-0.606	-1.46	-0.474
50	JADE2	-0.311	-0.425	-0.691	-0.387	-0.737

Individual results from above.
Result for DNMT3B under “z-score, AG1478 10 µM”: -1.16
DHX9, z-score, 10% serum → -0.608
For “z-score, vehicle”, SUPT7L shows -1.01
BRD4, z-score, BMP2/7 200 ng/ml = -2.84
JADE2, z-score, BMP2/7 200 ng/ml: -0.691
Under “z-score, 10% serum”, KAT6B reads 1.27
